Assay results as given in paper PMC10374912 (Nature Communications, 2023).

Biological target: 3XHA-tagged Zcf2 (C. albicans)
Assay: co-IP; C. albicans whole cell lysates from YPGal cultures before and after AA or KCN treatment; anti-Flag or anti-HA antibody, Protein G Dynabeads; F300 buffer (50 mM HEPES-KOH pH 7.2, 300 mM KOAc, 10% glycerol) with 0.02% IGEPAL-CA630; Benzonase-treated; immunoblot

3XHA-tagged Zcf2 (from UniProt A0A1D8PDI4 1-775)
binding: no binding

No constants are given. Whether binding was seen depends on the method and setting. In cells and extracts the contact can be indirect.
